Data taken from ChEMBL document CHEMBL3988442, “University of Dundee, Small-Polar-MMV Screening Library” (2021).

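Whole-parasite assay of Trypanosoma brucei over 72 hours; the read-out is not stated. Compounds at 30 µM. The record gives no direction; compounds that gave an IC50 in retests scored well above the rest, so higher reads as stronger inhibition. Values scatter widely below zero; nearly all retest evidence comes from the higher of the two concentrations used. Size under these conditions: about 64,000 compounds, about 940 of them at 50% or above in at least one test.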

The filed quantity is “Percent Effect” (%).
How 0% and 100% were set is not recorded. Most values in the screen are low, and negative values occur.
Compounds were drawn at random from those tested, without regard to their results.

- O=C(CCc1ccc(-n2cnnn2)cc1)Nc1nncs1 : 2.723%
- CCC(C)(C)NC(=O)c1nnn(-c2cccc3c2CCN(C)C3)c1C : 36.77%
- Cc1cc(=O)[nH]cc1C(=O)N1Cc2ccccc2N(C)CC1C (stereo unspecified) : -11.44%
- O=S1(=O)c2cccnc2OC(COc2ccccc2)CN1CC1CC1 (stereo unspecified) : 24.34%
- CCC(CC)NC(=O)CN1CCN(C(=O)N(C)C)CC1 : -7.055%
- O=C(O)C(F)(F)F.[H][C@]12CCN(S(=O)(=O)C3CC3)[C@@]1([H])CCC(=O)N2CCN1CCCC1 : -16.69%
- O=C(O)C(F)(F)F.[H][C@]12CCN(S(=O)(=O)N(C)C)CC[C@@]1([H])S(=O)(=O)CCN2CC(C)C : -27.23%
- O=C1NCC2(CCN(C(=O)c3ccc4c(c3)CCCO4)CC2)O1 : 17.2%
- CN1CCN(C(=O)c2cccc(S(=O)(=O)NCC3(C)COC3)c2)CC1 : -9.326%
- Nc1nc(N)c2c(n1)OC1(CCN(C(=O)CC3CCCNC3)CC1)C2 (stereo unspecified) : 0.8913%
- COc1cc(CNCC2CN(C3CC3)CCO2)cc(OC)c1.Cl (stereo unspecified) : 10.22%
- Cc1ccc(Oc2ncccc2CNC2CCOCC2)cn1 : -0.7931%
- CCOc1ccc(C#N)cc1NCC(=O)NC1(C#N)CCCC1 : -9.136%
- O=C(Cn1c(=O)nc2n1C(=O)N(c1ccccc1)C2)NC1CCCCC1 : 0.1211%
- COc1ccccc1CC(C)(C)NC(=O)CN(C)C(C)C : -36.51%
- COc1ccc(OC)c(C2CCN(C(=O)C3CCOCC3)C2)c1 (stereo unspecified) : -11.35%
- O=C(NCCCn1ccnc1)c1csc2c1CCCC2 : -659.9%
- CC(NC(=O)CSCC(=O)Nc1ccccc1)c1ccccc1 (stereo unspecified) : -33.95%
- Cc1cccnc1C(NC(=O)CNC(=O)c1ccoc1C)C(C)C (stereo unspecified) : -28.45%
- CCN1CCCC(CN(C)c2nccc(-c3ccc(C)nc3C)n2)C1 (stereo unspecified) : 16.8%
- CCCN1CCCn2nc(CNS(=O)(=O)c3ccc(F)cc3)cc2C1 : -11.11%
- Cc1c[nH]nc1C1CCCN1Cc1nccn1C.O=CO (stereo unspecified) : -18.81%
- C=Cc1ccc(C(=O)N2CCCC(Nc3ccc(OC)cc3)C2)cc1 (stereo unspecified) : 34.39%
- Cc1nn(C)c(N2CCCN(C)CC2)c1CNC(=O)C(C)(C)C : -7.472%
- O=C(c1ccc(-n2cccc2)c(F)c1)N1CCCN2CCCC2C1 (stereo unspecified) : 7.371%
- CC(C)c1nc(CN(C)C(=O)c2ccc3c(c2)OCC(=O)N3)cs1 : 17.57%
- Cc1cc(C(N)=O)c2c(Br)cccc2n1 : -30.24%
- Cc1cc(-c2nc(-c3c(C)ncc4c3CCNC4)no2)nc(C)n1 : -37.38%
- COc1ccc(C)c2c1N(C(=O)c1cnc3onc(C)c3c1)CCC2 : -11.54%
- CC(=O)N1CCC(c2nccnc2-c2ccc(F)cc2)CC1 : 3.362%
- CCc1nn(-c2cc(Oc3cc(C)ccc3C)ncn2)c(N)c1C#N : -5.497%
- CC(C)C1CN(S(C)(=O)=O)CCCN1Cc1ccc(F)cc1 (stereo unspecified) : -25.6%
- CN(C)C(=O)C1CCCN1CCCNC(=O)c1ccccc1Cl (stereo unspecified) : -1.339%
- Cc1nc(CN2CCCC2Cn2cccn2)nc2ccccc12 (stereo unspecified) : -97.44%
- O=C(O)C(F)(F)F.[H][C@@]12CCN(Cc3ccc(F)cc3)[C@]1([H])CC[C@H](C(=O)N1CCCO1)O2 : -4.108%
- Cc1noc(C)c1C(=O)N(C)C(C)c1cccnc1 (stereo unspecified) : -3.047%
- CS(=O)(=O)CCNCc1ccc(OCc2cscn2)cc1 : -6.903%
- COCCN1C[C@@H](c2ccccc2)[C@@]2(CCN(CC(=O)N(C)C)C2=O)C1.O=C(O)C(F)(F)F : -16.12%
- CC(C)NC(=O)C(C(C)C)n1cnc2cc(F)c(F)cc21 (stereo unspecified) : 0.198%
- Cc1nccn1CC1CCCN(Cc2ccc(-c3cccnc3)cc2)C1 (stereo unspecified) : -13.65%
- CC(CCc1ccccc1)N1CCC(C(=O)Nc2cnccn2)CC1 (stereo unspecified) : -38.77%
- CN(Cc1nc(Cc2cccc(C(F)(F)F)c2)no1)C1CCCCC1 : 32.19%
- COCC(=O)N1CCC(c2n[nH]c3nccnc23)CC1 : -26.47%
- CCn1nc(C)c(C(C)NC(=O)c2cccc(NCC(=O)O)c2)c1C (stereo unspecified) : -2.073%
- CC(C)Oc1cc(N2CCCC(O)C2)nc(N)n1 (stereo unspecified) : -14.79%
- CCC(=O)N1CCC(Oc2ccc(C(=O)NCCN(C)C)cc2Cl)CC1 : -44.86%
- CC(=O)c1csc(-c2csc(Cn3ccc(=O)[nH]c3=O)n2)c1 : -50.95%

4 of the entries, repeated:

Result for O=C1NCC2(CCN(C(=O)c3ccc4c(c3)CCCO4)CC2)O1 was 17.2%.
Result for O=C(Cn1c(=O)nc2n1C(=O)N(c1ccccc1)C2)NC1CCCCC1 was 0.1211%.
Result for CC(NC(=O)CSCC(=O)Nc1ccccc1)c1ccccc1 (stereo unspecified) was -33.95%.
Result for Cc1cc(=O)[nH]cc1C(=O)N1Cc2ccccc2N(C)CC1C (stereo unspecified) was -11.44%.